Data taken from PubChem BioAssay AID256 (DTP/NCI, 2004).
The list is a part of this screen's results and no random one: it gathers tests that were run many times, whatever their T/C, doses with no T/C, and many T/C values between a quarter and a half above the control. Other doses and runs of a compound stand elsewhere. T/C is the treated group as % of the vehicle group. Some entries give survivors of the animals treated and no T/C: the source holds a T/C of zero for them, seemingly a mark for toxic or unscored doses. Some doses without a T/C left all or most animals alive at the check, yet need not have been tolerated: survival well below the control is almost never listed, so the zero probably covers shortened survival too. Counts of survivors are from the toxicity check (mostly the fifth day) where no day follows; animals may have died later. Schedule codes are those of the source, taken here to give the interval after Q, in days (D) or hours (H), and the number of doses after X. Some entries were tested several times; their values stand side by side, smallest first. Brackets with × stand for listed records that agree. For survival time, this PubChem deposit counts one and a half times the control or more as active, and values a quarter to a half above the control carry no call in these data; other NCI protocols may use other cut-offs. Some T/C values are followed by the survivors on the day toxicity was checked, most often the fifth; without a count, all were alive then.

System: CD2F1 mice, L1210 leukemia ip, survival T/C
Experiment: NCI In Vivo Anticancer Drug Screen. Data for tumor model L1210 Leukemia (intraperitoneal) in CD2F1 (CDF1) mice
Details: higher T/C = longer survival
Outline: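 Vehicle-treated tumor-bearing mice served as controls (C) for compound-treated mice (T). Reported figure is T divided by C.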

[1] = T/C endpoint: median survival time, dose: 25.0 mg/kg/injection, schedule: Q01DX005 (ip), vehicle: suspension in saline
[2] = T/C endpoint: mean survival time, dose: 400.0 mg/kg/injection, schedule: Q04DX002 (ip), vehicle: saline with Tween-80
[3] = T/C endpoint: mean survival time, dose: 200.0 mg/kg/injection, schedule: Q01DX009 (ip), vehicle: saline with Tween-80
[4] = T/C endpoint: mean survival time, dose: 6.25 mg/kg/injection, schedule: Q01DX009 (ip), vehicle: saline with Tween-80
[5] = T/C endpoint: mean survival time, dose: 400.0 mg/kg/injection, schedule: Q01DX009 (ip), vehicle: Klucel (hydroxypropylcellulose) (HPC)

O=C(CC(O)(C(F)(F)F)C(F)(F)F)C(Cl)C(O)(C(F)(F)F)C(F)(F)F (stereo not given)
survivor count (T/C endpoint: mean survival time, dose: 200.0 mg/kg/injection, schedule: Q01DX001 (ip), vehicle: other): 0 of 6 | survivor count (T/C endpoint: mean survival time, dose: 400.0 mg/kg/injection, schedule: Q01DX001 (ip), vehicle: other): 1 of 6

COc1cccc2c1C(CO)N1C(C#N)C3CC(C(=O)O)C(C1C2)N3C (stereo not given)
T/C (T/C endpoint: median survival time, dose: 15.0 mg/kg/injection, schedule: Q01DX005 (ip), vehicle: suspension in saline): 134 % of control | T/C (T/C endpoint: median survival time, dose: 25.0 mg/kg/injection, schedule: Q01DX005 (ip), vehicle: saline): 130 % of control | T/C [1]: 130 % of control [5 of 6 alive] | survivor count [1]: 6 of 6 | survivor count (T/C endpoint: median survival time, dose: 41.67 mg/kg/injection, schedule: Q01DX005 (ip), vehicle: suspension in saline): 5 of 6 | survivor count (T/C endpoint: median survival time, dose: 69.44 mg/kg/injection, schedule: Q01DX005 (ip), vehicle: suspension in saline): 2 of 6 and 4 of 6

COC(=O)CC(=O)CBr
survivor count (T/C endpoint: mean survival time, dose: 100.0 mg/kg/injection, schedule: Q01DX001 (ip), vehicle: saline): 0 of 6 | survivor count (T/C endpoint: mean survival time, dose: 200.0 mg/kg/injection, schedule: Q01DX001 (ip), vehicle: saline): 0 of 6 | survivor count (T/C endpoint: mean survival time, dose: 400.0 mg/kg/injection, schedule: Q01DX001 (ip), vehicle: saline): 0 of 6

CCCCC(=O)C1CN(C(C)(C)C)C1
survivor count (T/C endpoint: mean survival time, dose: 100.0 mg/kg/injection, schedule: Q01DX001 (ip), vehicle: saline with Tween-80): 0 of 6 | survivor count (T/C endpoint: mean survival time, dose: 200.0 mg/kg/injection, schedule: Q01DX001 (ip), vehicle: saline with Tween-80): 0 of 6 | survivor count (T/C endpoint: mean survival time, dose: 400.0 mg/kg/injection, schedule: Q01DX001 (ip), vehicle: saline with Tween-80): 0 of 6

CN(C)N=Nc1cc(Cl)cc(C(N)=O)c1Cl
T/C (T/C endpoint: mean survival time, dose: 266.0 mg/kg/injection, schedule: Q01DX009 (ip), vehicle: saline with Tween-80): 135 % of control [4 of 6 alive]

Nc1nc(Cl)nc2c1ncn2C1OC(CO)C(O)C1O (stereo not given)
survivor count (T/C endpoint: mean survival time, dose: 100.0 mg/kg/injection, schedule: Q04DX002 (ip), vehicle: saline with Tween-80): 0 of 3 | survivor count (T/C endpoint: mean survival time, dose: 200.0 mg/kg/injection, schedule: Q01DX009 (ip), vehicle: saline): 2 of 6 | survivor count (T/C endpoint: mean survival time, dose: 200.0 mg/kg/injection, schedule: Q04DX002 (ip), vehicle: saline with Tween-80): 0 of 3 | survivor count (T/C endpoint: mean survival time, dose: 400.0 mg/kg/injection, schedule: Q01DX009 (ip), vehicle: saline): 0 of 6 | survivor count [2]: 0 of 3

COc1ccc2nc3cc(Cl)ccc3c(Nc3cccc(NC(C)=O)c3)c2n1
survivor count (T/C endpoint: mean survival time, dose: 200.0 mg/kg/injection, schedule: Q01DX009 (ip), vehicle: other): 0 of 6 | survivor count (T/C endpoint: mean survival time, dose: 400.0 mg/kg/injection, schedule: Q01DX009 (ip), vehicle: other): 0 of 6

CS(=O)(=O)OCCCN(CCCOS(C)(=O)=O)c1ccc(C=Nc2ccc(-c3csc(COc4ccc(Cl)cc4Cl)n3)cc2)cc1
survivor count [3]: 6 of 6 | survivor count (T/C endpoint: mean survival time, dose: 400.0 mg/kg/injection, schedule: Q01DX009 (ip), vehicle: saline with Tween-80): 6 of 6

Cc1cccc(OCC(O)CN2CC2)c1 (stereo not given)
T/C (T/C endpoint: median survival time, dose: 100.0 mg/kg/injection, schedule: Q01DX005 (ip), vehicle: saline with Tween-80, evaluated on day 26): 135 % of control | T/C (T/C endpoint: median survival time, dose: 100.0 mg/kg/injection, schedule: Q01DX005 (ip), vehicle: saline with Tween-80, evaluated on day 30): 127 % of control | survivor count (T/C endpoint: median survival time, dose: 200.0 mg/kg/injection, schedule: Q01DX005 (ip), vehicle: saline with Tween-80): 0 of 6 (2×) | survivor count (T/C endpoint: median survival time, dose: 277.77 mg/kg/injection, schedule: Q01DX005 (ip), vehicle: saline with Tween-80): 3 of 6

Cc1cc(NCCCCCCCNc2cc(C)nc3cc(N)ccc23)c2ccc(N)cc2n1
survivor count (T/C endpoint: mean survival time, dose: 0.78 mg/kg/injection, schedule: Q01DX009 (ip), vehicle: saline with Tween-80): 6 of 6 | survivor count (T/C endpoint: mean survival time, dose: 1.56 mg/kg/injection, schedule: Q01DX009 (ip), vehicle: saline with Tween-80): 6 of 6 | survivor count (T/C endpoint: mean survival time, dose: 3.12 mg/kg/injection, schedule: Q01DX009 (ip), vehicle: saline with Tween-80): 6 of 6 | T/C [4]: 126 % of control | survivor count [4]: 6 of 6 | survivor count (T/C endpoint: mean survival time, dose: 12.5 mg/kg/injection, schedule: Q01DX009 (ip), vehicle: saline with Tween-80): 5 of 6 | survivor count (T/C endpoint: mean survival time, dose: 25.0 mg/kg/injection, schedule: Q01DX009 (ip), vehicle: saline with Tween-80): 5 of 6 and 6 of 6 | T/C (T/C endpoint: median survival time, dose: 1.56 mg/kg/injection, schedule: Q01DX009 (ip), vehicle: water): 134 % of control | T/C (T/C endpoint: median survival time, dose: 3.12 mg/kg/injection, schedule: Q01DX009 (ip), vehicle: distilled water + Tween-80): 130 % of control | T/C (T/C endpoint: median survival time, dose: 3.12 mg/kg/injection, schedule: Q01DX009 (ip), vehicle: other): 129 % of control | T/C (T/C endpoint: median survival time, dose: 3.12 mg/kg/injection, schedule: Q01DX009 (ip), vehicle: water): 139 % of control | T/C (T/C endpoint: median survival time, dose: 6.25 mg/kg/injection, schedule: Q01DX009 (ip), vehicle: distilled water + Tween-80): 134 % of control | survivor count (T/C endpoint: median survival time, dose: 25.0 mg/kg/injection, schedule: Q01DX009 (ip), vehicle: distilled water + Tween-80): 5 of 8 | survivor count (T/C endpoint: median survival time, dose: 25.0 mg/kg/injection, schedule: Q01DX009 (ip), vehicle: other): 1 of 8 | survivor count (T/C endpoint: median survival time, dose: 25.0 mg/kg/injection, schedule: Q01DX009 (ip), vehicle: water): 1 of 6

CO[C@@]12[C@@H]3N[C@@H]3CN1C1=C(C(=O)C(NCCN(C)C)=C(C)C1=O)[C@@H]2COC(N)=O
T/C (T/C endpoint: mean survival time, dose: 6.0 mg/kg/injection, schedule: Q01DX001 (ip), vehicle: distilled water + Tween-80): 134 % of control | T/C (T/C endpoint: mean survival time, dose: 12.0 mg/kg/injection, schedule: Q01DX001 (ip), vehicle: distilled water + Tween-80): 146 % of control | T/C (T/C endpoint: mean survival time, dose: 12.0 mg/kg/injection, schedule: Q01DX001 (ip), vehicle: water): 136 % of control

O=C(O)CCC(=O)c1ccc(Cl)c(Cl)c1
survivor count [3]: 6 of 6 | survivor count (T/C endpoint: mean survival time, dose: 400.0 mg/kg/injection, schedule: Q04DX003 (ip), vehicle: saline with Tween-80): 4 of 6

Cc1sc2cc(N)ccc2[n+]1C
survivor count [2]: 0 of 3

CCCC(=O)OCC1OC(n2ccc(O)cc2=O)C(O)C1O (stereo not given)
T/C (T/C endpoint: median survival time, dose: 225.0 mg/kg/injection, schedule: Q01DX009 (ip), vehicle: saline + Tween-80 + alcohol): 137 % of control

CCCCNC(C)C1(O)Cc2c(O)c3c(c(O)c2C(OC2CC(N)C(O)C(C)O2)C1)C(=O)c1c(OC)cccc1C3=O (stereo not given)
T/C (T/C endpoint: mean survival time, dose: 20.0 mg/kg/injection, schedule: Q01DX009 (ip), vehicle: water): 128 % of control | T/C (T/C endpoint: mean survival time, dose: 40.0 mg/kg/injection, schedule: Q01DX009 (ip), vehicle: water): 132 % of control | T/C (T/C endpoint: mean survival time, dose: 80.0 mg/kg/injection, schedule: Q01DX009 (ip), vehicle: water): 138 % of control

CCN1C=C/C(=C/c2cc3scc(-c4ccccc4)[n+]3c3ccccc23)c2ccccc21
survivor count (T/C endpoint: mean survival time, dose: 0.08 mg/kg/injection, schedule: Q04DX003 (ip), vehicle: saline with Tween-80): 2 of 6 | survivor count (T/C endpoint: mean survival time, dose: 0.16 mg/kg/injection, schedule: Q04DX003 (ip), vehicle: saline with Tween-80): 2 of 6 | survivor count (T/C endpoint: mean survival time, dose: 0.32 mg/kg/injection, schedule: Q04DX003 (ip), vehicle: saline with Tween-80): 2 of 6

C#CCOCCCC(=C)C
survivor count (T/C endpoint: mean survival time, dose: 200.0 mg/kg/injection, schedule: Q01DX001 (ip), vehicle: acetone): 4 of 6 | survivor count (T/C endpoint: mean survival time, dose: 400.0 mg/kg/injection, schedule: Q01DX001 (ip), vehicle: acetone): 0 of 6

O=C1C(F)=C(F)C(=O)C(F)=C1F
survivor count (T/C endpoint: mean survival time, dose: 12.5 mg/kg/injection, schedule: Q01DX009 (ip), vehicle: Klucel (hydroxypropylcellulose) (HPC)): 2 of 6 | survivor count (T/C endpoint: mean survival time, dose: 25.0 mg/kg/injection, schedule: Q01DX009 (ip), vehicle: Klucel (hydroxypropylcellulose) (HPC)): 0 of 6 | survivor count (T/C endpoint: mean survival time, dose: 50.0 mg/kg/injection, schedule: Q01DX009 (ip), vehicle: Klucel (hydroxypropylcellulose) (HPC)): 0 of 6 | survivor count (T/C endpoint: mean survival time, dose: 100.0 mg/kg/injection, schedule: Q01DX009 (ip), vehicle: Klucel (hydroxypropylcellulose) (HPC)): 0 of 6

C=C1C(=O)OCC1(C(=O)OCC)C(=O)OCC
survivor count (T/C endpoint: mean survival time, dose: 80.0 mg/kg/injection, schedule: Q01DX001 (ip), vehicle: saline): 2 of 6

CCOC(=O)CNC(=O)Sc1ccc(C(C)(C)C)cc1
survivor count [5]: 3 of 6

CNc1nc(NC)nc(NC)n1
survivor count [5]: 0 of 6
